Experimental data: patent US20240400614A1 (Bright Peak Therapeutics AG, priority 2023, published 2024)

Test: general procedure: Fmoc solid-phase peptide synthesis; Rink-amide MBHA resin (0.57 mmol/g); HCTU/NMM
Settings: whole synthesis; for final HPLC purity: UV detection at 220 and 254

Substance: SSRAVFRKNLGPLGLAG (N-terminal Abz; C-terminal Tyr(3-NO2))
- isolated yield: 35.6%
- final HPLC purity: 90.9%

Substance: GSSVYSGR (N-terminal Abz, C-terminal Tyr(3-NO2) FRET pair)
- isolated yield: 25.2%
- final HPLC purity: 90.2%

Substance: SGRHSSKLQPLGYFGKL (N-terminal Abz, C-terminal Tyr(3-NO2) FRET pair)
- isolated yield: 20%
- final HPLC purity: 97.8%

Substance: HSSKLQYFGKL (N-terminal Abz, C-terminal Tyr(3-NO2) FRET pair)
- isolated yield: 5.6%
- final HPLC purity: 90.9%

Substance: RGRRVANPLGYFGKL (N-terminal Abz, C-terminal Tyr(3-NO2) FRET pair)
- isolated yield: 16.7%
- final HPLC purity: 96.8%

Substance: RGRKSPQPLVD (N-terminal Abz, C-terminal Tyr(3-NO2) FRET pair)
- isolated yield: 16.0%
- final HPLC purity: 90.7%

Substance: RQRRSPLGLAG (N-terminal Abz; C-terminal Tyr(3-NO2))
- isolated yield: 17.6%
- final HPLC purity: 97.2%

Substance: SGRVLRKAGPAGLVG (N-terminal Abz; C-terminal Tyr(3-NO2))
- isolated yield: 17.2%
- final HPLC purity: 90.5%

Substance: SGRVY-Nle-LQG
- isolated yield: 16.3%
- final HPLC purity: 90.3%

Substance: RGRRPLGLAGGSG (N-terminal Abz, C-terminal Tyr(3-NO2) FRET pair)
- isolated yield: 17.1%
- final HPLC purity: 90.3%

Substance: SSQYSSPG (N-terminal Abz, C-terminal Tyr(3-NO2) FRET pair)
- isolated yield: 9.4%
- final HPLC purity: 89.2%

Substance: SSLQSSPG (N-terminal Abz, C-terminal Tyr(3-NO2) FRET pair)
- isolated yield: 12.8%
- final HPLC purity: 92.6%

Substance: RGRRAANLVRPLGYFGKL (N-terminal Abz, C-terminal Tyr(3-NO2) FRET pair)
- isolated yield: 8.1%
- final HPLC purity: 95.4%

Substance: SSRGPASNRRLPLGLAG (N-terminal Abz; C-terminal Tyr(3-NO2))
- isolated yield: 22.6%
- final HPLC purity: 98.5%

Substance: RYGKSAPLGLAG (N-terminal Abz, C-terminal Tyr(3-NO2) FRET pair)
- isolated yield: 33.8%
- final HPLC purity: 90.4%

Substance: SGRVANPLGGSG (N-terminal Abz, C-terminal Tyr(3-NO2) FRET pair)
- isolated yield: 20.3%
- final HPLC purity: 89.8%

Substance: RGRKPQPLVD (N-terminal Abz, C-terminal Tyr(3-NO2) FRET pair)
- isolated yield: 14.4%
- final HPLC purity: 86.9%

Substance: RGRKVANLVG (N-terminal Abz, C-terminal Tyr(3-NO2) FRET pair)
- isolated yield: 6.7%
- final HPLC purity: 94.5%

Substance: GSSYYSGA (N-terminal Abz, C-terminal Tyr(3-NO2) FRET pair)
- isolated yield: 33.1%
- final HPLC purity: 95.7%

Substance: SPLGLAGS (N-terminal Abz, C-terminal Tyr(3-NO2) FRET pair)
- isolated yield: 25.6%
- final HPLC purity: 93.3%

Substance: SSRGRRGPYMLQG (N-terminal Abz; C-terminal Tyr(3-NO2))
- isolated yield: 16.8%
- final HPLC purity: 94.8%

Substance: SGRVLPAGLVG (N-terminal Abz; C-terminal Tyr(3-NO2))
- isolated yield: 28.4%
- final HPLC purity: 98.0%

Substance: RGRRHSSKLQPLGYFGKL (N-terminal Abz, C-terminal Tyr(3-NO2) FRET pair)
- isolated yield: 16.2%
- final HPLC purity: 98.3%

Substance: RQRRSAAPLGLAG (N-terminal Abz, C-terminal Tyr(3-NO2) FRET pair)
- isolated yield: 26.4%
- final HPLC purity: 89.4%

Substance: SQLYSSPG (N-terminal Abz, C-terminal Tyr(3-NO2) FRET pair)
- isolated yield: 15.2%
- final HPLC purity: 96.3%

Substance: RGRKSPY-Nle-LQG
- isolated yield: 28.6%
- final HPLC purity: 71.8%

Substance: SGRPLGYFGKL (N-terminal Abz, C-terminal Tyr(3-NO2) FRET pair)
- isolated yield: 8.5%
- final HPLC purity: 95.4%

Substance: SGRVLTLRKAALPLAM (N-terminal Abz; C-terminal Tyr(3-NO2))
- isolated yield: 7.6%
- final HPLC purity: 91.5%

Substance: RGRKSPYMLQG (N-terminal Abz, C-terminal Tyr(3-NO2) FRET pair)
- isolated yield: 5.6%
- final HPLC purity: 89.8%

Substance: RGRKPYMLQG (N-terminal Abz, C-terminal Tyr(3-NO2) FRET pair)
- isolated yield: 8.1%
- final HPLC purity: 77%

Substance: RQRKVANLVG (N-terminal Abz, C-terminal Tyr(3-NO2) FRET pair)
- isolated yield: 24.5%
- final HPLC purity: 90.4%

Substance: RGRRVANPLGLAGSG (N-terminal Abz, C-terminal Tyr(3-NO2) FRET pair)
- isolated yield: 16.2%
- final HPLC purity: 91.6%

Substance: SGRVLGPLNLSG (N-terminal Abz; C-terminal Tyr(3-NO2))
- isolated yield: 16.6%
- final HPLC purity: 98.0%

Substance: SGRVAPYMLQG (N-terminal Abz, C-terminal Tyr(3-NO2) FRET pair)
- isolated yield: 3.5%
- final HPLC purity: 79.5%

Substance: SGRVLTLRKAPWGLLE (N-terminal Abz; C-terminal Tyr(3-NO2))
- isolated yield: 20.3%
- final HPLC purity: 95.5%

Substance: SGRVAPY-Nle-LQG
- isolated yield: 24.6%
- final HPLC purity: 92%

Substance: KWGKSAPLGLAG (N-terminal Abz, C-terminal Tyr(3-NO2) FRET pair)
- isolated yield: 19.5%
- final HPLC purity: 92.2%

Substance: SGRVAGLVG (N-terminal Abz; C-terminal Tyr(3-NO2))
- isolated yield: 32.4%
- final HPLC purity: 91.2%

Substance: RGRKPY-Nle-LQG
- isolated yield: 25.1%
- final HPLC purity: 89.8%

Substance: SSLYSSPG (N-terminal Abz, C-terminal Tyr(3-NO2) FRET pair)
- isolated yield: 16.6%
- final HPLC purity: 93.5%

Substance: RGRKSPANLVG (N-terminal Abz, C-terminal Tyr(3-NO2) FRET pair)
- isolated yield: 31.9%
- final HPLC purity: 90.6%

Substance: SGRVLRKAGPQPLVD (N-terminal Abz; C-terminal Tyr(3-NO2))
- isolated yield: 22.1%
- final HPLC purity: 95.2%

Substance: RQRRSVVGG (N-terminal Abz, C-terminal Tyr(3-NO2) FRET pair)
- isolated yield: 10.4%
- final HPLC purity: 80.1%

Substance: SGRVQPLVD (N-terminal Abz, C-terminal Tyr(3-NO2) FRET pair)
- isolated yield: 21.8%
- final HPLC purity: 93%

Substance: SGRVYMLQG (N-terminal Abz, C-terminal Tyr(3-NO2) FRET pair)
- isolated yield: 13.8%
- final HPLC purity: 80.4%

Substance: SSRVFRKPANLAG (N-terminal Abz; C-terminal Tyr(3-NO2))
- isolated yield: 14.6%
- final HPLC purity: 95.5%

Substance: RQRRS-Nle-PLGLAG
- isolated yield: 25.3%
- final HPLC purity: 90.2%

Substance: SGRVLPYAMTA (N-terminal Abz, C-terminal Tyr(3-NO2) FRET pair)
- isolated yield: 44.8%
- final HPLC purity: 94.3%

Substance: SGRVAPQPLVD (N-terminal Abz, C-terminal Tyr(3-NO2) FRET pair)
- isolated yield: 17.4%
- final HPLC purity: 90.9%

Substance: RGRKSQPLVD (N-terminal Abz, C-terminal Tyr(3-NO2) FRET pair)
- isolated yield: 20.5%
- final HPLC purity: 85.1%

Substance: ISQYSSAT (N-terminal Abz, C-terminal Tyr(3-NO2) FRET pair)
- isolated yield: 5.6%
- final HPLC purity: 94.8%

Substance: SGRVLPANLVG (N-terminal Abz; C-terminal Tyr(3-NO2))
- isolated yield: 25.9%
- final HPLC purity: 90.6%

Substance: RGRRVANLVG (N-terminal Abz, C-terminal Tyr(3-NO2) FRET pair)
- isolated yield: 28.4%
- final HPLC purity: 91.3%

End groups of sequences in plain letters are not given here.
